Literature values in patent US20220160728A1, “GENE THERAPY METHODS” (Homology Medicines, Inc., priority 2020, published 2022).
For at least one compound, name, drawing or mass did not settle the structure.

Conditions: corticosteroid equivalency conversion values (prednisolone equivalents)

C[C@H]1C[C@H]2[C@@H]3CCC4=CC(=O)C=C[C@]4(C)[C@@]3(F)[C@@H](O)C[C@]2(C)[C@@]1(O)C(=O)CO [Betamethasone]
Equivalent dose: 0.6 mg

C[C@@H]1C[C@H]2[C@@H]3CCC4=CC(=O)C=C[C@]4(C)[C@@]3(F)[C@@H](O)C[C@]2(C)[C@@]1(O)C(=O)CO [Dexamethasone]
Equivalent dose: 0.75 mg

C[C@H]1C[C@@H]2[C@H]([C@@H](O)C[C@@]3(C)[C@H]2CC[C@]3(O)C(=O)CO)[C@@]2(C)C=CC(=O)C=C12 [Methylprednisolone]
Equivalent dose: 4 mg
